Data as given in PubChem BioAssay AID1259425 (University of Nebraska Medical Center, 2018).

Screen: 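Find knockdowns that reproduce the gene expression pattern seen when KSR1 is lost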 (primary screen)
Cell system: HCT116 human colon cancer cells
Knock-down reagent: siRNA pool against human genes, 50 nM siRNA
Detection: 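After 50 nM siRNA pool, branched-DNA assay measures six marker transcripts per well, minus blank, normalised to the geometric mean of two housekeeping transcripts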
Reading the numbers: BNIP3L mRNA: higher = more BNIP3L transcript after knockdown; NDRG1 mRNA: higher = more NDRG1 transcript after knockdown
Shown is an unselected part of about 14,000 deposited reagents. Further read-outs or replicates are left out here. The record does not give: the time to read-out.

IP6K1: BNIP3L mRNA, set 1 = 0.162; NDRG1 mRNA, set 1 = 0.0664
CITED1: BNIP3L mRNA, set 1 = 0.129; NDRG1 mRNA, set 1 = 0.159
ARHGDIB: BNIP3L mRNA, set 1 = 0.0806; NDRG1 mRNA, set 1 = 0.0875
DES: BNIP3L mRNA, set 1 = 0.137; NDRG1 mRNA, set 1 = 0.0835
HABP2: BNIP3L mRNA, set 1 = 0.15; NDRG1 mRNA, set 1 = 0.195
BCO2: BNIP3L mRNA, set 1 = 0.307; NDRG1 mRNA, set 1 = 0.335
TFG: BNIP3L mRNA, set 1 = 0.0885; NDRG1 mRNA, set 1 = 0.139

Part of the list above, set out differently.
{"gene": "HABP2", "BNIP3L mRNA, set 1": 0.15, "NDRG1 mRNA, set 1": 0.195}
{"gene": "BCO2", "BNIP3L mRNA, set 1": 0.307, "NDRG1 mRNA, set 1": 0.335}

More reagents follow:
KIF2B: BNIP3L mRNA, set 1 = 0.0871; NDRG1 mRNA, set 1 = 0.21
MCM2: BNIP3L mRNA, set 1 = 0.0883; NDRG1 mRNA, set 1 = 0.138
SCGN: BNIP3L mRNA, set 1 = 0.102; NDRG1 mRNA, set 1 = 0.257
ITGB1BP1: BNIP3L mRNA, set 1 = 0.0755; NDRG1 mRNA, set 1 = 0.334
SLC35B1: BNIP3L mRNA, set 1 = 0.0514; NDRG1 mRNA, set 1 = 0.107
